The values that follow come from PubChem BioAssay AID1347426 (Functional Genomics Laboratory (NCATS/FGL), 2020).

Screen size: about 31,000 sequences; about 1,400 (4.5%) were called active.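 How the source made its calls: active means median seed-adjusted z-score above 1 or below -1; inactive means the rest.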 The list shows a part of the results.

The test is described as follows: Novel Modifiers of Survival Motor Neuron (SMN) Protein: Gene Identification via Genome-wide siRNA Screen.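 Further: luminescence tracks full-length SMN protein made from the SMN2 reporter.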 The following applies: HEK293T SMN2-luciferase reporter, siRNA knockdown, 72 h; actives lie on both sides. Summed up: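 Each of three siRNAs per gene is reverse-transfected (1 pmol) into reporter HEK293T cells whose luciferase output tracks SMN protein level. After 72 h culture, ONE-Glo luminescence is control-normalized, log10-transformed and MAD-standardized; Common Seed Analysis deprioritizes seed-driven hits.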
CCCUCUUCGUCAUGACCAATT against P2RX4: the median seed-adjusted z-score is inactive: 0.467.

As to GGGUGAUACCAUUCAAUGUTT against PPIA, the median seed-adjusted z-score was inactive: 0.0169.

For the sequence CCCUGUUGGGUAUAGAUGATT against ATF4, the median seed-adjusted z-score is inactive: 0.

As for AGAAAGUACUGCACAGAGATT against PCDH8, the median seed-adjusted z-score is active: -1.03.

On to GGUGGUUCCUAUCCUGAGATT against SPRR2G, for which the median seed-adjusted z-score was inactive: 0.358.

For GACCUACUACAUAGAAUUATT against RABL3, the median seed-adjusted z-score is inactive: 0.843.

Regarding GUCUCAUUCCAACCUUAUATT against PIGN, the median seed-adjusted z-score is inactive: 0.215.

For GCUGACAAAUCAACACGUATT against ANKZF1, the median seed-adjusted z-score was inactive: 0.176.

Turning to AGGGACCGGUUCAUCGAAATT against CSDA, the median seed-adjusted z-score was inactive: 0.

Regarding CAAUGAUGGUUGAUCUACATT against RANBP6, the median seed-adjusted z-score was inactive: -0.696.

For GCACUCACCUUGUAGUUGATT against ECT2, the median seed-adjusted z-score was inactive: 0.04.

On to GCCCUUAUCAUAAAUGCUUTT against DCTN6, for which the median seed-adjusted z-score is inactive: 0.211.

On to GAUUGCUAUUAGUCCCAAATT against RBKS, for which the median seed-adjusted z-score was inactive: 0.229.

For the sequence GACCCACAAAUAUACCAUUTT against SMAP1, the median seed-adjusted z-score was inactive: -0.201.

With AGACGAUUGGUAGCACCUATT against ADCY6, the median seed-adjusted z-score was inactive: -0.0652.

Regarding GAAGAUCGCCGUCAAGAUGTT against EDA, the median seed-adjusted z-score was inactive: 0.316.

As for GCCUUGUCAAUGUUAGUCATT against NPHP3, the median seed-adjusted z-score was inactive: 0.239.

As for AGAGGUCCACCCUUCUUUATT against SEBOX, the median seed-adjusted z-score was inactive: 0.2.

Take AGAACUUCUCGUCACUGUATT against RALGDS: the median seed-adjusted z-score is inactive: -0.235.

For the sequence GAACAUUAACCUGCGAGAATT against LSM4, the median seed-adjusted z-score is inactive: -0.679.

Take UUAUAGAACUCACACUCAATT against ZIM2: the median seed-adjusted z-score is inactive: -0.565.

Turning to CAACGGCAACGGAGAGGAUTT against SLC24A6, the median seed-adjusted z-score is inactive: -0.792.

As for CAGAAAGAGCAGUACUUUUTT against MYF5, the median seed-adjusted z-score was inactive: -0.786.

As for GAUGUUCUGUUAGAGCUGATT against PCGF1, the median seed-adjusted z-score was inactive: 0.508.

As to GCAUCAUCUGUAACAAGAUTT against WNT7A, the median seed-adjusted z-score is inactive: 0.0931.

As to GGAUAGAGAUUCCAAAUAUTT against RXFP2, the median seed-adjusted z-score is inactive: 0.511.

With UGACGCAGGUAGAACGUAATT against PINX1, the median seed-adjusted z-score is inactive: 0.11.

As to ACUGCACGGUGGUUCAGUATT against SLC27A1, the median seed-adjusted z-score was inactive: 0.253.

Turning to GGAAGGACAUUGUCGUUAUTT against KLKBL4, the median seed-adjusted z-score is inactive: -0.0132.

With CCUUCCCGCCCAUCUCUUATT against MVD, the median seed-adjusted z-score is inactive: -0.561.

Take GCAACUAAUAAGACCAAGATT against SWAP70: the median seed-adjusted z-score is inactive: -0.704.

On to GCCCUGUAAGCACGAGUUUTT against RNF215, for which the median seed-adjusted z-score is inactive: -0.889.

Consider CUAAAUCUUUUGCAGUUUATT against PLEKHF2, for which the median seed-adjusted z-score is inactive: 0.0967.

With GAUCCUCUAGUAAAGGGAATT against GNG11, the median seed-adjusted z-score was inactive: 0.00609.

Consider GGGAUGGACAUAAACGAAUTT against TUBB1, for which the median seed-adjusted z-score is inactive: -0.289.

For the sequence CAGUGUGAAUGGGACAUCATT against EPHA8, the median seed-adjusted z-score was inactive: 0.217.

In the case of GCUUCUGUCUCGGUACCGATT against PKLR, the median seed-adjusted z-score is inactive: 0.587.

Consider CCAACAUCUGGAACGAAUATT against KCNT2, for which the median seed-adjusted z-score was inactive: 0.449.

On to CGAUUUCUGCAAACGGAGATT against HSPD1, for which the median seed-adjusted z-score was inactive: -0.146.

On to GGCUUUAUGAAAAUCGAAATT against MMP21, for which the median seed-adjusted z-score was inactive: -0.185.

Consider UGAAAGGACUUGUCUGAAATT against CHST6, for which the median seed-adjusted z-score is inactive: 0.372.

Take ACAUCAAGAAUGACCCGGATT against EXOC7: the median seed-adjusted z-score is inactive: -0.231.

As for GUAAGGUCUUUAGUCGAAATT against ZNF347, the median seed-adjusted z-score was inactive: 0.

With GCUACAAGCUUGACAAGCATT against EIF3B, the median seed-adjusted z-score is inactive: -0.71.

Turning to CCUUAUGAGUUCUCACGGATT against TG, the median seed-adjusted z-score is inactive: 0.0137.

GAAGCAGGAUGAACUGAAATT against ATP5I: the median seed-adjusted z-score is inactive: -0.871.

Regarding GGAAGAGAGCUAUUCGUCUTT against GMEB1, the median seed-adjusted z-score is inactive: 0.198.

GGAUUAAAGAGAAGAUCUATT against ERH: the median seed-adjusted z-score is active: -1.25.

As for GCCCUGUGAGUACCUCUUUTT against LGR6, the median seed-adjusted z-score was inactive: 0.237.

For the sequence CAGUGUAGUUGUUCGAGAUTT against KPNB1, the median seed-adjusted z-score was inactive: 0.165.

As for GCUAUUACCUCAUCAUGCUTT against FA2H, the median seed-adjusted z-score was inactive: 0.0497.

On to GAAUGGUGUGGAUCUCCUATT against ARPC5, for which the median seed-adjusted z-score was inactive: -0.479.

Regarding GGGCUUAGGUGUGAUCAUUTT against USH2A, the median seed-adjusted z-score is inactive: 0.0673.

Consider GCUGAGGAGUCAGUGCAUGTT against TNFRSF18, for which the median seed-adjusted z-score is inactive: 0.154.

CCUUCUUUCCGGACAAUUUTT against VIPR1: the median seed-adjusted z-score is inactive: 0.168.

As for CCUGCAGAGAUGUACUGAATT against RDH12, the median seed-adjusted z-score was inactive: -0.0267.

GGUGGGACACCGAGACAUATT against CABP1: the median seed-adjusted z-score is inactive: -0.192.

Regarding CCAGACUGAUGAGAACAAUTT against GOLGA2L1, the median seed-adjusted z-score is inactive: 0.487.

Take CUCCUGUCGUUAGACCUAATT against MDM4: the median seed-adjusted z-score is inactive: 0.0554.

Regarding UGAAGUUCCUGAAUAACCATT against NR5A1, the median seed-adjusted z-score was inactive: -0.467.

Take GAAGUAUUCUCCGAUUUUATT against UBE4B: the median seed-adjusted z-score is inactive: -0.0364.

On to CAUUGUUAAUGCUACCAUUTT against DUSP14, for which the median seed-adjusted z-score is inactive: 0.0654.

On to GCCUGAUUCUGAGUGAUGATT against SPTLC2, for which the median seed-adjusted z-score was inactive: 0.

For GCACAGCCCUGCUCAACAATT against ZFP36L2, the median seed-adjusted z-score is inactive: -0.0485.

Take GACUCUAACCUGGAUCGAATT against NID1: the median seed-adjusted z-score was inactive: 0.761.

On to CCUCCAAGGAUGAAUGUAATT against BOC, for which the median seed-adjusted z-score was inactive: -0.0192.

As for CAAAGGAUAAGAAAGAAAATT against METTL1, the median seed-adjusted z-score was inactive: 0.0494.

With GCUCUAACCUCACUAAUCATT against ZNF256, the median seed-adjusted z-score is inactive: 0.00739.

For CAGCAUAGGUGGUUUGUGATT against GPR62, the median seed-adjusted z-score is inactive: 0.0306.
